Reference: patent US20020168359A1
These are yes or no findings as the source states them, for the method shown. In cells and extracts the contact can be indirect. Some binding calls cover weakened binding; strength is not graded here. Tags and fused reporters may be left off the sequences shown.

T1: FADD, Q13158
T1 chain: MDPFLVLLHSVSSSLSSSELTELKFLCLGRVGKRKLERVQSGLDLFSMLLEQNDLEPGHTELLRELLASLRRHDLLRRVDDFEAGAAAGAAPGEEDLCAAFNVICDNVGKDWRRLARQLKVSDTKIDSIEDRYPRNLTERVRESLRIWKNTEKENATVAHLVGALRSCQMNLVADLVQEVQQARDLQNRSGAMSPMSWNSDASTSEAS

T2: myc-tagged TRADD (UniProt Q15628)
T2 sequence (looked up): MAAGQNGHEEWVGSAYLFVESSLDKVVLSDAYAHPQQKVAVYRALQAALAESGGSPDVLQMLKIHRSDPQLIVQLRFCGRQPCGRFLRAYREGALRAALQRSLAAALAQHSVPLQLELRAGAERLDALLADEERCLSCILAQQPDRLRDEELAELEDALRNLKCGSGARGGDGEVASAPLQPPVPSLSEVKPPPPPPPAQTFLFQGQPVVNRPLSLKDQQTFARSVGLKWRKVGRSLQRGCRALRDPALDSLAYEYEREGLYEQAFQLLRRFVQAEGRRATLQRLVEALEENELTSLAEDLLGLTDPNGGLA


Tests used:
FADD, Q13158 = molecular target: T1, FADD, Q13158; experiment: co-immunoprecipitation from co-transfected 293 cells (FLAG M2 affinity gel, immunoblot with anti-FADD); details: remark: other sources report otherwise
myc-tagged TRADD = molecular target: T2, myc-tagged TRADD; experiment: co-immunoprecipitation from co-transfected 293 cells (FLAG M2 affinity gel, immunoblot with anti-myc-HRP)

binding (FADD, Q13158)	binding (myc-tagged TRADD)	Binder
binds		FLAG-CD95, P25445 26-335 (receptor, UniProt P25445 26-335, looked up) QVTDINSKGLELRKTVTTVETQNLEGLHHDGQFCHKPCPPGERKARDCTVNGDEPDCVPCQEGKEYTDKAHFSSKCRRCRLCDEGHGLEVEINCTRTQNTKCRCKPNFFCNSTVCEHCDPCTKCEHGIIKECTLTSNTKCKEEGSRSNLGWLCLLLLPIPLIVWVKRKEVQKTCRKHRKENQGSHESPTLNPETVAINLSDVDLSKYITTIAGVMTLSQVKGFVRKNGVNEAKIDEIKNDNVQDTAEQKVQLLRNWHQLHGKKEAYDTLIKDLKKANLCTLAEKIQTIILKDITSDSENSNFRNEIQSLV
	binds	FLAG-DR3 (receptor, UniProt Q93038 25-417, looked up) QGGTRSPRCDCAGDFHKKIGLFCCRGCPAGHYLKAPCTEPCGNSTCLVCPQDTFLAWENHHNSECARCQACDEQASQVALENCSAVADTRCGCKPGWFVECQVSQCVSSSPFYCQPCLDCGALHRHTRLLCSRRDTDCGTCLPGFYEHGDGCVSCPTSTLGSCPERCAAVCGWRQMFWVQVLLAGLVVPLLLGATLTYTYRHCWPHKPLVTADEAGMEALTPPPATHLSPLDSAHTLLAPPDSSEKICTVQLVGNSWTPGYPETQEALCPQVTWSWDQLPSRALGPAAAPTLSPESPAGSPAMMLQPGPQLYDVMDAVPARRWKEFVRTLGLREAEIEAVEVEIGRFRDQQYEMLKRWRQQQPAGLGAVYAALERMGLDGCVEDLRSRLQRGP
